These are yes or no findings as the source states them, for the method shown. Binding seen in cells or lysates may run through a third protein. Some binding calls cover weakened binding; strength is not graded here.
Biological target: T1, hASIC1a with AzF at Glu177 (human) (UniProt P78348)
T1 sequence (chain, 4-azido-L-phenylalanine (AzF) at position 177): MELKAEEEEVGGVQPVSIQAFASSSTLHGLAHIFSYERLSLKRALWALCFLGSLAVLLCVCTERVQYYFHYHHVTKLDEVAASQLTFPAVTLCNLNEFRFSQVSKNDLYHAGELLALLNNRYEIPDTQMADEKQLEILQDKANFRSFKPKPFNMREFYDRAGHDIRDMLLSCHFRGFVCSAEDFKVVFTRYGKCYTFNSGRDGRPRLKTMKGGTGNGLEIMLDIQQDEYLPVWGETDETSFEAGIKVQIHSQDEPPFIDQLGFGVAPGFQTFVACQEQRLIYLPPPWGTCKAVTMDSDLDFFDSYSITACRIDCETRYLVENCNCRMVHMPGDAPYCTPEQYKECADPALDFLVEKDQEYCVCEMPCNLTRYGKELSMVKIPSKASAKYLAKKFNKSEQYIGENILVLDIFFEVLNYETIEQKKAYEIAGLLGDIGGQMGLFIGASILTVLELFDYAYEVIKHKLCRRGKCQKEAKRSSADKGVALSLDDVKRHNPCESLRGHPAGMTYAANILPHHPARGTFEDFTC
Assay: cross-linking

Substance: big dynorphin (from UniProt P01213 207-238) (peptide)
- binding: binds
